Consider one molecule from patent publication US20170015742A1.

Results are given in words; binding and its absence hold for the method and conditions named. Binding calls can cover weak binding; strength is not graded here.

The assay deals with Human PDGF-BB-RM (Retention Motif) (human). The experiment in a line: immunofluorescence staining of fixed PDGFB-RM transfected HEK293 cells, 33 nM.

B1: CL-33675-IgG (antibody, V domains shown)
VH: EVTLRESGPALVKPTQTLTLTCTFSGFSLSTYGMGVGWIRQPPGKALEWLANIWWDDDKYYNPSLKNRLTISKDTSKNQVVLTMTNMDPVDTATYYCARIESSGPKYSFDYWGQGTMVTVSS
VL: EIVLTQSPGTLSLSPGERATLSCRASSGSIWYSFVSWYQQKPGQAPRLLIYADDQRASGIPDRFSGSGSGTDFTLTISRLEPEDFAVYYCQSYGINIDVVFGGGTKVEIK
For the molecule B1, the binding entry is “binds”.
